# The whole screen tested about 59,000 compounds, of which about 35 (0.06%) were called active. Inconclusive means that the source gave no clear call. Such entries were picked first, then a sample of the others. Rule as the data show it: active = max dye-equivalent concentration above about 10 nM; inconclusive = between about 1.1 nM and that limit; inactive = weaker than that.
# Assay: qHTS Assay for Spectroscopic Profiling in Texas Red Spectral Region
# Conditions: Compound fluorescence, Texas Red channel, 547/618 nm; stronger effect = higher value
# Summary of the method: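 Compound fluorescence was read after 15 min at room temperature in 100 mM Tris, pH 8.0, using 547 nm excitation and 618 nm emission across a concentration series. It was expressed as Texas Red dye-equivalent concentration from an on-plate standard curve.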
row,Structure (SMILES),max dye-equivalent concentration
1,CCOc1cccc(OCCCCN2CCCCC2)c1,inconclusive: 1.8 nM
2,Cc1ccc(S(=O)(=O)NCCN(CCNS(=O)(=O)c2ccc(C)cc2)S(C)(=O)=O)cc1,inconclusive: 1.2 nM
3,Cc1ccc(Cn2c(SCC(=O)NCc3ccco3)nc3ccsc3c2=O)cc1,inconclusive: 1.4 nM
4,Cc1ccccc1N1CCN(Cc2cccc(C(=O)O)c2)CC1,inconclusive: 1.4 nM
5,Cc1c(NC(=O)CSc2nncc3ccccc23)c(=O)n(-c2ccccc2)n1C,inconclusive: 1.1 nM
6,COc1ccc2[nH]c(O)c(NC(C)=O)c2c1,inconclusive: 1.2 nM
7,CCOC(=O)c1ccc(N2C(=O)C(O)=C(C(C)=O)C2c2ccc(O)c(OC)c2)cc1 (centres undefined),inactive
8,Cc1cc(N2C(=O)C(=O)/C(=C(/O)c3ccc(F)cc3)C2c2ccc(Cl)cc2)no1 (centres undefined),inconclusive: 2.7 nM
9,CON(C)c1nc(OCCNC(=O)OCc2ccc(Cl)cc2Cl)nc(N(C)C)n1,inconclusive: 2 nM
10,CCC1Sc2ccccc2N(CC(=O)NC2CCCC2)C1=O (centres undefined),inconclusive: 1.5 nM
11,CC(=O)NCCn1c(SCc2cc(=O)n3cc(Cl)ccc3n2)nc2ccccc2c1=O,inconclusive: 1.7 nM
12,COc1ccc(N2CCN(C(=O)CCNS(=O)(=O)c3ccc(Br)s3)CC2)cc1,inconclusive: 2.1 nM
13,COc1cccc2cc(C(=O)Nc3cccnc3N3CCOCC3)c(=O)oc12,inconclusive: 1.2 nM
14,CCOC(=O)c1nnn(-c2nonc2-n2cccc2)c1CN1CCC(C)CC1,inconclusive: 1.5 nM
15,CS(=O)(=O)N(CC(=O)N1CCC(C(N)=O)CC1)C1CCCCC1,inconclusive: 2.6 nM
16,O=C(O)CN(CCOCCOCCN(CC(=O)O)CC(=O)O)CC(=O)O,inconclusive: 1.2 nM
17,CCCCN(CC)CCNC(=O)CN(C)S(=O)(=O)c1ccc2c(c1)c(=O)n(C)c(=O)n2C,inconclusive: 1.1 nM
18,O=C(CN(C(=O)CCNC(=O)c1ccco1)c1ccccc1)NC1CCCC1,inconclusive: 1.6 nM
19,CCOC(=O)c1c(NCc2ccc3c(c2)OCO3)c2ccccc2[nH]c1=O,inconclusive: 1.9 nM
20,Cc1cc2ncn(/N=C/c3cc(Br)ccc3O)c2cc1C,inconclusive: 1.9 nM
21,CSc1ncccc1C(=O)OCC(=O)Nc1cc(C(F)(F)F)ccc1N1CCOCC1,inconclusive: 2.8 nM

row,Structure (SMILES),max dye-equivalent concentration
1,COc1cc2c(cc1OC)-c1cc3ccc(OC)c(OC)c3c[n+]1CC2,inconclusive: 1.1 nM
2,Cc1nn(Cc2ccc(C(=O)NC3CCCCC3)o2)c(C)c1Br,inconclusive: 2.3 nM
3,C=CCn1c(SCC(=O)Nc2cc(NC(C)=O)ccc2OC)nnc1-c1cccnc1,inconclusive: 1.9 nM
4,Cc1ccc(Cn2ncc3c(NCCCN4CCOCC4)ncnc32)cc1,inconclusive: 1.1 nM
5,O=C(Nc1ccc(NC(=O)C23CC4CC(CC(C4)C2)C3)cn1)c1ccco1,inconclusive: 1.3 nM
6,CN[C@H]1[C@@H](O[C@@H]2[C@H](O[C@@H]3[C@@H](O)[C@@H](O)[C@@H](N=C(N)N)[C@@H](O)[C@@H]3N=C(N)N)O[C@H](C)[C@@]2(O)C=O)O[C@@H](CO)[C@@H](O)[C@H]1O,inconclusive: 1.7 nM
7,O=C(Nc1nc(-c2ccc3c(c2)OCO3)cs1)c1ccncc1,inconclusive: 1.2 nM
8,CCOc1cc(S(=O)(=O)NCc2ccccn2)c(C)cc1C,inconclusive: 2.8 nM
9,CC(C)n1c(SC2C(=O)CC(C)(C)CC2=O)nc2c1c(=O)n(C)c(=O)n2C,inactive
10,N#Cc1ccc(CSc2nnc(-c3cccs3)n2-c2ccccc2)cc1,inconclusive: 1.6 nM
11,C(=N\c1nc2ccccc2n1CCN1CCOCC1)/c1cccs1,inconclusive: 1.2 nM
12,Cc1ccc2c(CN3C(=O)NC4(CCCCC4)C3=O)cc(=O)oc2c1C,inconclusive: 1.2 nM
13,Cn1c(CN2CCOCC2)c(C#N)c2ccccc21,inactive
14,CCc1nc(NCCCN2CCOCC2)c2oc3ccccc3c2n1,inconclusive: 1.1 nM
15,CCCC(C(=O)NC1CCCC1)N(C(=O)Cn1nnc(-c2ccc(C)o2)n1)C1CCCC1 (centres undefined),inconclusive: 1.1 nM
16,NC(=O)CSc1nnc(COc2ccccc2)n1C1CCCCC1,inconclusive: 1.3 nM
17,Cc1ccc(C(=O)[C@@H]2[C@@H]3[C@@H](C(=O)[C@@H]4OC[C@H]3O4)[C@@H]3C=Cc4ccccc4N23)cc1,inactive
18,CCCn1c(C)nc2c(c1=O)c1nc3ccccc3nc1n2-c1ccc2c(c1)OCCO2,inconclusive: 1.5 nM
19,O=C(c1ccco1)N1CCC2(CCCN(Cc3ccccc3)C2)CC1,inactive
20,COc1ccc(OCC(=O)N2CCN(c3cccc(C(F)(F)F)c3)CC2)cc1,inconclusive: 1.2 nM
21,COc1ccc(C(=O)N2CCCC(c3nc(-c4cccs4)no3)C2)cc1 (centres undefined),inconclusive: 2.8 nM

row,Structure (SMILES),max dye-equivalent concentration
1,CCOc1ccc(N2C(=O)c3cccnc3C2Nc2ccc(Cl)cc2)cc1 (centres undefined),inconclusive: 1.5 nM
2,CC(C)OCCCNC(=O)c1ccncc1,inconclusive: 1.2 nM
3,COc1ccc(C)cc1S(=O)(=O)N1CCC(C(=O)N2CCOCC2)CC1,inconclusive: 1.1 nM
4,CN1CCN(S(=O)(=O)c2ccc3[nH]cc(C(=O)O)c(=O)c3c2)CC1,inconclusive: 1.4 nM
5,COCCCNC(=O)Cn1nnc(-c2ccccc2NC(=O)c2ccccc2F)n1,inconclusive: 1.8 nM
6,O=C(O)c1c[nH]c2c(ccc3[nH]cc(C(=O)O)c(=O)c32)c1=O,inactive
7,Cc1cc(C(=O)OCC(=O)Nc2nc(-c3ccccc3)cs2)c(C)o1,inconclusive: 1.3 nM
8,COc1ccccc1CN(Cc1cc2c(C)ccc(C)c2[nH]c1=O)Cc1nnnn1Cc1ccco1,inconclusive: 1.8 nM
9,Cc1cc(Cl)cc(C)c1OCCCCn1ccnc1,inconclusive: 2.7 nM
10,CCOC(=O)Nc1ccc2c(c1)N(C(=O)CCN1CCOCC1)c1ccccc1S2,inconclusive: 1.4 nM
11,CCOC(=O)c1sc(N)c(C#N)c1CSc1nc2ccc(OCC)cc2[nH]1,inactive
12,COc1ccc(CN2CCN(C(=O)c3cccnc3)CC2)cc1Br,inconclusive: 1.2 nM
13,O=c1cc(-c2cccc(O)c2O)oc2ccccc12,inactive
14,O=C1c2ccccc2C(=O)N1C[C@]1(C(=O)O)NCCS1(=O)=O,inactive
15,CC1(C)CC(=O)c2cnn(-c3nc4ccccc4[nH]3)c2C1,inconclusive: 1.1 nM
16,CCOc1c(Br)cc(C2NS(=O)(=O)N=C3CCCCCN32)cc1OC (centres undefined),inconclusive: 1.2 nM
17,Cn1cc(C2=C(c3ccc(Cl)cc3Cl)C(=O)NC2=O)c2ccccc21,inactive
18,CC(C)(C)c1csc(NC(=O)Cn2cnc3ccccc3c2=O)n1,inconclusive: 1.2 nM
19,COc1ccc(CNC(=O)CN(C(=O)c2cc3sccc3n2C)C2CCCC2)cc1,inconclusive: 1.2 nM
20,CCN(CCCNC(=O)CCNC(=O)Cn1cnc2ccccc2c1=O)c1ccccc1,inconclusive: 2.1 nM
21,CCn1ncc(Br)c1C(=O)N(C)C12CC3CC(CC(C3)C1)C2,inconclusive: 1.2 nM

# Arranged by count of non-hydrogen atoms (ascending): three of the compounds above
row,Structure (SMILES),max dye-equivalent concentration
9,Cc1cc(Cl)cc(C)c1OCCCCn1ccnc1,inconclusive: 2.7 nM
14,O=C1c2ccccc2C(=O)N1C[C@]1(C(=O)O)NCCS1(=O)=O,inactive
17,Cn1cc(C2=C(c3ccc(Cl)cc3Cl)C(=O)NC2=O)c2ccccc21,inactive

# Next structures follow.

row,Structure (SMILES),max dye-equivalent concentration
1,CCc1cc2c(=O)c(-c3ccc4c(c3)OCCO4)coc2cc1OC(=O)c1ccco1,inactive
2,CCCCn1c(=O)n(C)c(=O)c2c(C(F)(F)F)cc(-c3ccncc3)nc21,inconclusive: 1.5 nM
3,COc1cc(OC)c(/C=C2/C(=O)Nc3ccccc32)c(OC)c1,inactive
4,CCOc1ccc(Nc2oc(-c3ccco3)nc2C#N)cc1,inconclusive: 1.1 nM
5,Fc1ccc(Cn2nnnc2CN2CCN(C3CCCC3)CC2)cc1,inconclusive: 2.2 nM
6,O=C(O)CN(CCN(CC(=O)O)CC(=O)O)CC(=O)O.[Cu],inconclusive: 1.7 nM
7,CC(C)C(=O)c1cn(CC(=O)NCC2CCCO2)c2ccccc12 (centres undefined),inconclusive: 1.5 nM
8,COC(=O)c1sc(S(=O)(=O)N2CCCCC2)c(C(=O)OC)c1C,inconclusive: 1.5 nM
9,CCCCCCCCCCCCCCCCCC(=O)O[C@H](CC(=O)O)C[N+](C)(C)C,inactive
10,CN(C)c1nc(OCCOC(=O)COc2ccc(Cl)cc2Cl)nc(N(C)C)n1,inconclusive: 1.6 nM
11,COc1ccc(N2C(=O)CC(N(Cc3ccc(S(N)(=O)=O)cc3)C(C)=O)C2=O)cc1 (centres undefined),inactive
12,COc1ccc(CCNC(=O)c2ccc3c(=O)n(Cc4ccco4)c(=S)[nH]c3c2)cc1OC,inconclusive: 1.3 nM
13,C[C@@H]1CCCN(CP(=O)(c2ccccc2)c2ccccc2)C1,inactive
14,O=C1CC(c2ccco2)=Nc2ccccc2N1,inconclusive: 1.1 nM
15,COc1ccccc1N1CCN(C(=O)c2ccc(C(C)(C)C)cc2)CC1,inconclusive: 1.2 nM
16,CCn1c(SCC(=O)Nc2cccc(F)c2)nnc1-c1cc2cc(Br)ccc2o1,inconclusive: 2 nM
17,CCSc1ccccc1C(=O)Nc1nncs1,inconclusive: 1.6 nM
18,Cc1ccc2nsnc2c1S(=O)(=O)N1CCN(CCc2ccccc2)CC1,inconclusive: 1.3 nM
19,CCOC(=O)C1CCN(CC(O)COc2ccc(C(C)(C)C)cc2)CC1 (centres undefined),inconclusive: 1.1 nM
20,Cc1nn(Cc2ccccc2)c(C)c1NC(=O)CSc1nc2sc3c(c2c(=O)n1C)CCC3,inconclusive: 1.5 nM
21,CN[C@]1(C)[C@@H]2CC[C@@H](C2)C1(C)C,inactive

# Part of the list above, bar-delimited.
row | Structure (SMILES) | max dye-equivalent concentration
12 | COc1ccc(N2CCN(C(=O)CCNS(=O)(=O)c3ccc(Br)s3)CC2)cc1 | inconclusive: 2.1 nM
6 | O=C(O)CN(CCN(CC(=O)O)CC(=O)O)CC(=O)O.[Cu] | inconclusive: 1.7 nM

# Source: PubChem BioAssay AID587 (National Center for Advancing Translational Sciences (NCATS), 2007)
